The list does not hold the whole screen: it gathers tests that were run many times, whatever their T/C, doses with no T/C, and many T/C values between a quarter and a half above the control. Other doses and runs of a compound stand elsewhere. T/C gives the treated animals as a percentage of the vehicle group. Schedules are NCI's codes, read here as Q, the interval in days (D) or hours (H), X, the number of doses. Some T/C values are followed by the survivors on the day toxicity was checked, most often the fifth; without a count, all were alive then. Some doses have a count of surviving animals in place of a T/C: the source files T/C as zero there, which appears to mark a toxic dose or a test without result, not a measured value. Survivors were counted at the toxicity check, usually on the fifth day, unless a day is given; later deaths do not show. Some entries hold several experiments; the results are listed from low to high.
System: CD8F1 mice, subcutaneous mammary adenocarcinoma, T/C%
Assay: NCI In Vivo Anticancer Drug Screen. Data for tumor model Mammary Adenocarcinoma CD8F1 (subcutaneous) in CD8F1
Conditions: higher T/C = larger tumour
Outline: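 Antitumor activity is assessed in transplantable-tumor mice by comparing the treated group with a vehicle-treated control group. Survival or tumor size serves as the measure, reported as T divided by C.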

[1] = T/C endpoint: median tumor weight change, dose: 250.0 mg/kg/injection, schedule: Q01DX001 (ip), vehicle: saline with Tween-80
[2] = T/C endpoint: median tumor weight (est.), dose: 50.0 mg/kg/injection, schedule: Q07DX005 (ip), vehicle: saline with Tween-80, evaluated on day 30
[3] = T/C endpoint: median tumor weight change, dose: 250.0 mg/kg/injection, schedule: Q01DX001 (ip), vehicle: saline
[4] = T/C endpoint: median tumor weight (est.), dose: 200.0 mg/kg/injection, schedule: Q07DX005 (ip), vehicle: Klucel (hydroxypropylcellulose) (HPC)

`COc1ccc(-c2csc(=[N+]3CCCCC3)s2)cc1` was tested, and the T/C (T/C endpoint: median tumor weight change, dose: 16.0 mg/kg/injection, schedule: Q01DX001 (ip), vehicle: saline with Tween-80, evaluated on day 28) was 136 % of control, the T/C (T/C endpoint: median tumor weight change, dose: 16.0 mg/kg/injection, schedule: Q01DX001 (ip), vehicle: water, evaluated on day 32) was 129 % of control and the survivor count (T/C endpoint: median tumor weight change, dose: 62.0 mg/kg/injection, schedule: Q01DX001 (ip), vehicle: water) was 2 of 10 on day 32. The survivor count (T/C endpoint: median tumor weight change, dose: 62.5 mg/kg/injection, schedule: Q01DX001 (ip), vehicle: saline with Tween-80) was 2 of 10 on day 28, the survivor count (T/C endpoint: median tumor weight change, dose: 125.0 mg/kg/injection, schedule: Q01DX001 (ip), vehicle: saline with Tween-80) was 0 of 10 on day 28 and the survivor count (T/C endpoint: median tumor weight change, dose: 125.0 mg/kg/injection, schedule: Q01DX001 (ip), vehicle: water) was 0 of 10 on day 32. For the same compound, the survivor count [1] was 0 of 10 on day 28 and the survivor count (T/C endpoint: median tumor weight change, dose: 250.0 mg/kg/injection, schedule: Q01DX001 (ip), vehicle: water) was 0 of 10 on day 32.

For `C=C1C(C)C2C(Cc3ccccc3)NC(=O)C23C(OC(C)=O)/C=C/C(C)(O)CC(C)C/C=C/C3C1O` (stereo not given), the survivor count (T/C endpoint: median tumor weight change, dose: 15.0 mg/kg/injection, schedule: Q01DX001 (ip), vehicle: Klucel (hydroxypropylcellulose) (HPC)) was 1 of 10 on day 26 and 1 of 10 on day 31, the survivor count (T/C endpoint: median tumor weight change, dose: 30.0 mg/kg/injection, schedule: Q01DX001 (ip), vehicle: Klucel (hydroxypropylcellulose) (HPC)) was 0 of 10 on day 26 and 0 of 10 on day 31 and the survivor count (T/C endpoint: median tumor weight change, dose: 60.0 mg/kg/injection, schedule: Q01DX001 (ip), vehicle: Klucel (hydroxypropylcellulose) (HPC)) was 0 of 10 on day 26 and 0 of 10 on day 31.

With `c1ccc([C@H]2CN3CCSC3=N2)cc1` the T/C (T/C endpoint: median tumor weight (est.), dose: 25.0 mg/kg/injection, schedule: Q07DX005 (ip), vehicle: saline, evaluated on day 34) was 131 % of control.

For `CCCCNCCCNCCCNC(=O)c1csc(-c2csc(CCNC(=O)C(NC(=O)C(C)C(O)C(C)NC(=O)C(NC(=O)c3nc(C(CC(N)=O)NCC(N)C(N)=O)nc(N)c3C)C(OC3OC(CO)C(O)C(O)C3OC3OC(CO)C(O)C(OC(N)=O)C3O)c3cnc[nH]3)C(C)O)n2)n1` (stereo not given), the survivor count (T/C endpoint: median tumor weight (est.), dose: 128.0 mg/kg/injection, schedule: Q07DX005 (ip), vehicle: saline) was 0 of 10 on day 30.

For `ClC(Cl)(Cl)C1=NCc2nnn(Cc3ccccc3)c2N1`, the T/C [2] was 146 % of control [9 of 10 alive on day 30].

`O=C1NC(=O)C2C3C=CC(C12)C1C2C(=O)NC(=O)C2C31` (stereo not given) was tested, and the T/C (T/C endpoint: median tumor weight change, dose: 31.25 mg/kg/injection, schedule: Q01DX001 (ip), vehicle: saline with Tween-80, evaluated on day 29) was 140 % of control, the survivor count (T/C endpoint: median tumor weight change, dose: 83.3 mg/kg/injection, schedule: Q01DX005 (ip), vehicle: water) was 3 of 10 on day 31 and the survivor count (T/C endpoint: median tumor weight change, dose: 150.0 mg/kg/injection, schedule: Q01DX001 (ip), vehicle: saline) was 1 of 10 on day 25. For the same compound, the survivor count [1] was 5 of 10 on day 29, the survivor count [3] was 0 of 10 on day 25 and the survivor count (T/C endpoint: median tumor weight change, dose: 416.7 mg/kg/injection, schedule: Q01DX001 (ip), vehicle: saline) was 0 of 10 on day 25. The survivor count (T/C endpoint: median tumor weight change, dose: 500.0 mg/kg/injection, schedule: Q01DX001 (ip), vehicle: saline with Tween-80) was 0 of 10 on day 29 and 1 of 10 on day 34, the survivor count (T/C endpoint: median tumor weight change, dose: 1000.0 mg/kg/injection, schedule: Q01DX001 (ip), vehicle: saline with Tween-80) was 0 of 10 on day 34 and the survivor count (T/C endpoint: median tumor weight change, dose: 2000.0 mg/kg/injection, schedule: Q01DX001 (ip), vehicle: saline with Tween-80) was 0 of 10 on day 34.

With `Cc1cc(=NO)cc(C)n1O` the survivor count (T/C endpoint: median tumor weight change, dose: 1000.0 mg/kg/injection, schedule: Q01DX001 (ip), vehicle: distilled water + alcohol) was 1 of 10 on day 32 and 4 of 10 on day 29 and the survivor count (T/C endpoint: median tumor weight change, dose: 2000.0 mg/kg/injection, schedule: Q01DX001 (ip), vehicle: distilled water + alcohol) was 0 of 10 on day 29 and 0 of 10 on day 32.

In the case of `OCC1OC(n2cnc3cncnc32)C(O)C1O` (stereo not given), the survivor count (T/C endpoint: median tumor weight (est.), dose: 25.0 mg/kg/injection, schedule: Q07DX005 (ip), vehicle: saline) is reported as 6 of 10 on day 30, the survivor count (T/C endpoint: median tumor weight (est.), dose: 50.0 mg/kg/injection, schedule: Q07DX005 (ip), vehicle: saline) is reported as 3 of 10 on day 30 and the survivor count (T/C endpoint: median tumor weight (est.), dose: 100.0 mg/kg/injection, schedule: Q07DX005 (ip), vehicle: saline) is reported as 0 of 10 on day 30.

With `COc1ccc(C(N)=O)cc1N=NN(C)C` the survivor count [4] was 0 of 10 on day 30.

With `O=c1cc[nH]c(=O)o1` the survivor count (T/C endpoint: mean tumor weight, dose: 75.0 mg/kg/injection, schedule: Q07DX005 (ip), vehicle: saline) was 6 of 10 and the T/C (T/C endpoint: median tumor weight (est.), dose: 18.5 mg/kg/injection, schedule: Q07DX005 (ip), vehicle: saline, evaluated on day 30) was 141 % of control.

`CC1=CC(=Nc2ccc(N(CCCl)CCCl)cc2)C=C(C)C1=O` was tested, and the survivor count (T/C endpoint: median tumor weight (est.), dose: 100.0 mg/kg/injection, schedule: Q07DX005 (ip), vehicle: Klucel (hydroxypropylcellulose) (HPC)) was 3 of 10 on day 30 and the survivor count [4] was 0 of 10 on day 30.

For `CC1(C)CC(=O)C(CSC(=O)c2ccccc2)C(=O)C1`, the T/C (T/C endpoint: median tumor weight (est.), dose: 12.5 mg/kg/injection, schedule: Q07DX005 (ip), vehicle: Klucel (hydroxypropylcellulose) (HPC), evaluated on day 30) was 144 % of control, the T/C (T/C endpoint: median tumor weight (est.), dose: 25.0 mg/kg/injection, schedule: Q07DX005 (ip), vehicle: Klucel (hydroxypropylcellulose) (HPC), evaluated on day 30) was 130 % of control [9 of 10 alive on day 30] and the survivor count (T/C endpoint: median tumor weight (est.), dose: 200.0 mg/kg/injection, schedule: Q07DX005 (ip), vehicle: saline) was 2 of 10 on day 30.

With `COc1c(C=O)c2c(c(OC)c1OC)-c1ccc(OC)c(=O)cc1[C@@H](NC(C)=O)CC2` the T/C (T/C endpoint: median tumor weight change, dose: 7.81 mg/kg/injection, schedule: Q01DX001 (ip), vehicle: Klucel (hydroxypropylcellulose) (HPC), evaluated on day 27) was 125 % of control and the survivor count (T/C endpoint: median tumor weight change, dose: 125.0 mg/kg/injection, schedule: Q01DX001 (ip), vehicle: Klucel (hydroxypropylcellulose) (HPC)) was 0 of 10 on day 26 and 5 of 10 on day 27.

With `COc1ccc2nc3cc(Cl)ccc3c(NCCNCCNCCNc3c4ccc(Cl)cc4nc4ccc(OC)cc34)c2c1` the T/C (T/C endpoint: median tumor weight (est.), dose: 25.0 mg/kg/injection, schedule: Q07DX005 (ip), vehicle: saline with Tween-80, evaluated on day 30) was 147 % of control and the T/C [2] was 131 % of control.

With `COC(=O)Nc1cccc(-c2nc3ccc(NC(=O)OC)cc3c(=O)n2-c2ccccc2)c1` the T/C (T/C endpoint: mean tumor weight, dose: 200.0 mg/kg/injection, schedule: Q07DX006 (ip), vehicle: saline, evaluated on day 44) was 133 % of control, the T/C (T/C endpoint: mean tumor weight, dose: 400.0 mg/kg/injection, schedule: Q07DX006 (ip), vehicle: saline, evaluated on day 44) was 131 % of control [9 of 10 alive] and the T/C (T/C endpoint: median tumor weight (est.), dose: 25.0 mg/kg/injection, schedule: Q04DX005 (ip), vehicle: saline, evaluated on day 30) was 145 % of control. The T/C (T/C endpoint: median tumor weight (est.), dose: 100.0 mg/kg/injection, schedule: Q04DX005 (ip), vehicle: saline, evaluated on day 30) was 142 % of control [9 of 10 alive] and the T/C (T/C endpoint: median tumor weight (est.), dose: 100.0 mg/kg/injection, schedule: Q07DX004 (ip), vehicle: saline, evaluated on day 30) was 143 % of control.

In the case of `CCCC(=O)O`, the survivor count [3] is reported as 0 of 10 on day 35, the survivor count (T/C endpoint: median tumor weight change, dose: 500.0 mg/kg/injection, schedule: Q01DX001 (ip), vehicle: saline) is reported as 0 of 10 on day 35 and the survivor count (T/C endpoint: median tumor weight change, dose: 1000.0 mg/kg/injection, schedule: Q01DX001 (ip), vehicle: saline) is reported as 0 of 10 on day 35. The survivor count (T/C endpoint: median tumor weight change, dose: 2000.0 mg/kg/injection, schedule: Q01DX001 (ip), vehicle: saline) was 0 of 10 on day 35 and the survivor count (T/C endpoint: median tumor weight change, dose: 4000.0 mg/kg/injection, schedule: Q01DX001 (ip), vehicle: saline) was 0 of 10 on day 35.

Source: PubChem BioAssay AID220 (DTP/NCI, 2004)
